Biological target: Cytochrome P450 2C9 (Homo sapiens, UniProt P11712)

Protein sequences, listed by entry. Tags and fused reporters are not part of them.
UniProt P11712, whole entry: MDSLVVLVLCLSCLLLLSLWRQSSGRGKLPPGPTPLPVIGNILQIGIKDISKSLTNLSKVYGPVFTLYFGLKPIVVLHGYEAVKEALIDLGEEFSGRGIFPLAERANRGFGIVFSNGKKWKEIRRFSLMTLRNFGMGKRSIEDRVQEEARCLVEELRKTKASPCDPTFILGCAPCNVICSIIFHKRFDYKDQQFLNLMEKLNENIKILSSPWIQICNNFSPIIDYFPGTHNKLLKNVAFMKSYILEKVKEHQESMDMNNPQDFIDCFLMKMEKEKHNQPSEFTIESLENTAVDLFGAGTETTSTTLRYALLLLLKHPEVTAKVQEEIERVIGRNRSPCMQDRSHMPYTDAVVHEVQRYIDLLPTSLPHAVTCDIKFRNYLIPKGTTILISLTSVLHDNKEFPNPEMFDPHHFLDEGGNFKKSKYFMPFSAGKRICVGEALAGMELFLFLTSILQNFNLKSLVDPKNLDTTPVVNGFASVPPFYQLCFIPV

## CCNC(=O)C[C@@H]1N=C(c2ccc(Cl)cc2)c2cc(OC)ccc2-n2c(C)nnc21 [MOLIBRESIB]
  IC50: > 50 µM
